The source of these data is publication doi:10.1101/2025.04.28.650959.

Sequences of proteins named here, by UniProt entry; tags and fusion partners are left off.
UniProt Q14258, whole entry: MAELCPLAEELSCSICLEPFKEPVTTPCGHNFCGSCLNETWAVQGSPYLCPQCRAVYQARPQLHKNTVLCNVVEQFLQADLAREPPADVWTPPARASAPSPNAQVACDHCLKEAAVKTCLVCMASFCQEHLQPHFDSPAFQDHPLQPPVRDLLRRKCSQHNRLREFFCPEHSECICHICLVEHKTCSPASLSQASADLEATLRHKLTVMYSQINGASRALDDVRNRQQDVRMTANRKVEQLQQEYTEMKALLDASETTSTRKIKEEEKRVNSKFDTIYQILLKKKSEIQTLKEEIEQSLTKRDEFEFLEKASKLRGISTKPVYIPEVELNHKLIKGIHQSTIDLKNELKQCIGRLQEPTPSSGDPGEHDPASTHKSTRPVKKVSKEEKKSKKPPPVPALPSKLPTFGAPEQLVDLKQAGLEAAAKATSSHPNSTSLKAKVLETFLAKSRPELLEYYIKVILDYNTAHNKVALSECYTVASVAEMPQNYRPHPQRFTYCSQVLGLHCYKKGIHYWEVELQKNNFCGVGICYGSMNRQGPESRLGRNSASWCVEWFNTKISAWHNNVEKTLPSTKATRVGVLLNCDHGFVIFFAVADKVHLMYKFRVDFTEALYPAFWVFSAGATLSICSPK

Results are given in words; binding and its absence hold for the method and conditions named. Binding seen in cells or lysates may run through a third protein. Some results given as binding are weak or reduced against the parent protein; the word gives no strength.

The target in assay [1] is ZAP-short (ZAP-S), endogenous in HEK293T ZAP-L knockout cells (human (endogenous in HEK293T)), Q7Z2W4. Kind of assay: co-IP. Conditions: remark: other sources report otherwise.
Assay [2] addresses TRIM25 (E3 ubiquitin ligase), endogenous (human (endogenous in HEK293T and HeLa)) (UniProt Q14258). Kind of assay: co-IP.

B1: KHNYN (endoribonuclease), endogenous, O15037 1-678 (protein)
chain: MPTWGARPASPDRFAVSAEAENKVREQQPHVERIFSVGVSVLPKDCPDNPHIWLQLEGPKENASRAKEYLKGLCSPELQDEIHYPPKLHCIFLGAQGFFLDCLAWSTSAHLVPRAPGSLMISGLTEAFVMAQSRVEELAERLSWDFTPGPSSGASQCTGVLRDFSALLQSPGDAHREALLQLPLAVQEELLSLVQEASSGQGPGALASWEGRSSALLGAQCQGVRAPPSDGRESLDTGSMGPGDCRGARGDTYAVEKEGGKQGGPREMDWGWKELPGEEAWEREVALRPQSVGGGARESAPLKGKALGKEEIALGGGGFCVHREPPGAHGSCHRAAQSRGASLLQRLHNGNASPPRVPSPPPAPEPPWHCGDRGDCGDRGDVGDRGDKQQGMARGRGPQWKRGARGGNLVTGTQRFKEALQDPFTLCLANVPGQPDLRHIVIDGSNVAMVHGLQHYFSSRGIAIAVQYFWDRGHRDITVFVPQWRFSKDAKVRESHFLQKLYSLSLLSLTPSRVMDGKRISSYDDRFMVKLAEETDGIIVSNDQFRDLAEESEKWMAIIRERLLPFTFVGNLFMVPDDPLGRNGPTLDEFLKKPARTQGSSKAQHPSRGFAEHGKQQQGREEEKGSGGIRKTRETERLRRQLLEVFWGQDHKVDFILQREPYCRDINQLSEALLSLNF
B1: in assay [1], the binding result is “binds”.

B2: DIS3L2 (3'-5' exoribonuclease), endogenous (protein, UniProt Q8IYB7 1-885)
chain: MSHPDYRMNLRPLGTPRGVSAVAGPHDIGASPGDKKSKNRSTRGKKKSIFETYMSKEDVSEGLKRGTLIQGVLRINPKKFHEAFIPSPDGDRDIFIDGVVARNRALNGDLVVVKLLPEEHWKVVKPESNDKETEAAYESDIPEELCGHHLPQQSLKSYNDSPDVIVEAQFDGSDSEDGHGITQNVLVDGVKKLSVCVSEKGREDGDAPVTKDETTCISQDTRALSEKSLQRSAKVVYILEKKHSRAATGFLKLLADKNSELFRKYALFSPSDHRVPRIYVPLKDCPQDFVARPKDYANTLFICRIVDWKEDCNFALGQLAKSLGQAGEIEPETEGILTEYGVDFSDFSSEVLECLPQGLPWTIPPEEFSKRRDLRKDCIFTIDPSTARDLDDALSCKPLADGNFKVGVHIADVSYFVPEGSDLDKVAAERATSVYLVQKVVPMLPRLLCEELCSLNPMSDKLTFSVIWTLTPEGKILDEWFGRTIIRSCTKLSYEHAQSMIESPTEKIPAKELPPISPEHSSEEVHQAVLNLHGIAKQLRQQRFVDGALRLDQLKLAFTLDHETGLPQGCHIYEYRESNKLVEEFMLLANMAVAHKIHRAFPEQALLRRHPPPQTRMLSDLVEFCDQMGLPVDFSSAGALNKSLTQTFGDDKYSLARKEVLTNMCSRPMQMALYFCSGLLQDPAQFRHYALNVPLYTHFTSPIRRFADVLVHRLLAAALGYRERLDMAPDTLQKQADHCNDRRMASKRVQELSTSLFFAVLVKESGPLESEAMVMGILKQAFDVLVLRYGVQKRIYCNALALRSHHFQKVGKKPELTLVWEPEDMEQEPAQQVITIFSLVEVVLQAESTALKYSAILKRPGTQGHLGPEKEEEESDGEPEDSSTS
For B2, the binding result in assay [2] was “binds”.

B3: TUT7 (terminal uridylyltransferase 7), endogenous (protein, UniProt Q5VYS8 1-1495)
chain: MGDTAKPYFVKRTKDRGTMDDDDFRRGHPQQDYLIIDDHAKGHGSKMEKGLQKKKITPGNYGNTPRKGPCAVSSNPYAFKNPIYSQPAWMNDSHKDQSKRWLSDEHTGNSDNWREFKPGPRIPVINRQRKDSFQENEDGYRWQDTRGCRTVRRLFHKDLTSLETTSEMEAGSPENKKQRSRPRKPRKTRNEENEQDGDLEGPVIDESVLSTKELLGLQQAEERLKRDCIDRLKRRPRNYPTAKYTCRLCDVLIESIAFAHKHIKEKRHKKNIKEKQEEELLTTLPPPTPSQINAVGIAIDKVVQEFGLHNENLEQRLEIKRIMENVFQHKLPDCSLRLYGSSCSRLGFKNSDVNIDIQFPAIMSQPDVLLLVQECLKNSDSFIDVDADFHARVPVVVCREKQSGLLCKVSAGNENACLTTKHLTALGKLEPKLVPLVIAFRYWAKLCSIDRPEEGGLPPYVFALMAIFFLQQRKEPLLPVYLGSWIEGFSLSKLGNFNLQDIEKDVVIWEHTDSAAGDTGITKEEAPRETPIKRGQVSLILDVKHQPSVPVGQLWVELLRFYALEFNLADLVISIRVKELVSRELKDWPKKRIAIEDPYSVKRNVARTLNSQPVFEYILHCLRTTYKYFALPHKITKSSLLKPLNAITCISEHSKEVINHHPDVQTKDDKLKNSVLAQGPGATSSAANTCKVQPLTLKETAESFGSPPKEEMGNEHISVHPENSDCIQADVNSDDYKGDKVYHPETGRKNEKEKVGRKGKHLLTVDQKRGEHVVCGSTRNNESESTLDLEGFQNPTAKECEGLATLDNKADLDGESTEGTEELEDSLNHFTHSVQGQTSEMIPSDEEEEDDEEEEEEEEPRLTINQREDEDGMANEDELDNTYTGSGDEDALSEEDDELGEAAKYEDVKECGKHVERALLVELNKISLKEENVCEEKNSPVDQSDFFYEFSKLIFTKGKSPTVVCSLCKREGHLKKDCPEDFKRIQLEPLPPLTPKFLNILDQVCIQCYKDFSPTIIEDQAREHIRQNLESFIRQDFPGTKLSLFGSSKNGFGFKQSDLDVCMTINGLETAEGLDCVRTIEELARVLRKHSGLRNILPITTAKVPIVKFFHLRSGLEVDISLYNTLALHNTRLLSAYSAIDPRVKYLCYTMKVFTKMCDIGDASRGSLSSYAYTLMVLYFLQQRNPPVIPVLQEIYKGEKKPEIFVDGWNIYFFDQIDELPTYWSECGKNTESVGQLWLGLLRFYTEEFDFKEHVISIRRKSLLTTFKKQWTSKYIVIEDPFDLNHNLGAGLSRKMTNFIMKAFINGRRVFGIPVKGFPKDYPSKMEYFFDPDVLTEGELAPNDRCCRICGKIGHFMKDCPMRRKVRRRRDQEDALNQRYPENKEKRSKEDKEIHNKYTEREVSTKEDKPIQCTPQKAKPMRAAADLGREKILRPPVEKWKRQDDKDLREKRCFICGREGHIKKECPQFKGSSGSLSSKYMTQGKASAKRTQQES
For B3, the binding result in assay [2] is recorded as “binds”.
